Measurements as given in US20100093643A1 (priority 2006, published 2010).

Assay: peptide synthesis

Substance | step yield (late stage modification step) | step yield (coupling step)
Tyr-(N^δ—Ac)-D-Orn-Gly-Phe(p-NO2)—NH2 | 90% | –
Boc-Tyr(Boc)-(N^δ—Ac)-D-Orn-Gly-Phe(p-NO2)—NH2 | – | 31%
